Experimental data as given in PMC7556464.
These are yes or no findings as the source states them, for the method shown. Some binding calls cover weakened binding; strength is not graded here.

Protein sequences, listed by entry. Tags and fused reporters are not part of them. Residues count along the entry.
UniProt Q6VS19: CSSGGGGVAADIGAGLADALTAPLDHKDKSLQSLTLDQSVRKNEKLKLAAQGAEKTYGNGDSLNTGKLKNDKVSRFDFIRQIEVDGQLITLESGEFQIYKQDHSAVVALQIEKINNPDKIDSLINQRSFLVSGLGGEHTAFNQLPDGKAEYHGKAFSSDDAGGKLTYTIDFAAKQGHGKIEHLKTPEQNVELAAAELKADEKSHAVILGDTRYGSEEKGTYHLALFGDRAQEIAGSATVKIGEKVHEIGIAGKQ
UniProt P08603, residues 19-1231: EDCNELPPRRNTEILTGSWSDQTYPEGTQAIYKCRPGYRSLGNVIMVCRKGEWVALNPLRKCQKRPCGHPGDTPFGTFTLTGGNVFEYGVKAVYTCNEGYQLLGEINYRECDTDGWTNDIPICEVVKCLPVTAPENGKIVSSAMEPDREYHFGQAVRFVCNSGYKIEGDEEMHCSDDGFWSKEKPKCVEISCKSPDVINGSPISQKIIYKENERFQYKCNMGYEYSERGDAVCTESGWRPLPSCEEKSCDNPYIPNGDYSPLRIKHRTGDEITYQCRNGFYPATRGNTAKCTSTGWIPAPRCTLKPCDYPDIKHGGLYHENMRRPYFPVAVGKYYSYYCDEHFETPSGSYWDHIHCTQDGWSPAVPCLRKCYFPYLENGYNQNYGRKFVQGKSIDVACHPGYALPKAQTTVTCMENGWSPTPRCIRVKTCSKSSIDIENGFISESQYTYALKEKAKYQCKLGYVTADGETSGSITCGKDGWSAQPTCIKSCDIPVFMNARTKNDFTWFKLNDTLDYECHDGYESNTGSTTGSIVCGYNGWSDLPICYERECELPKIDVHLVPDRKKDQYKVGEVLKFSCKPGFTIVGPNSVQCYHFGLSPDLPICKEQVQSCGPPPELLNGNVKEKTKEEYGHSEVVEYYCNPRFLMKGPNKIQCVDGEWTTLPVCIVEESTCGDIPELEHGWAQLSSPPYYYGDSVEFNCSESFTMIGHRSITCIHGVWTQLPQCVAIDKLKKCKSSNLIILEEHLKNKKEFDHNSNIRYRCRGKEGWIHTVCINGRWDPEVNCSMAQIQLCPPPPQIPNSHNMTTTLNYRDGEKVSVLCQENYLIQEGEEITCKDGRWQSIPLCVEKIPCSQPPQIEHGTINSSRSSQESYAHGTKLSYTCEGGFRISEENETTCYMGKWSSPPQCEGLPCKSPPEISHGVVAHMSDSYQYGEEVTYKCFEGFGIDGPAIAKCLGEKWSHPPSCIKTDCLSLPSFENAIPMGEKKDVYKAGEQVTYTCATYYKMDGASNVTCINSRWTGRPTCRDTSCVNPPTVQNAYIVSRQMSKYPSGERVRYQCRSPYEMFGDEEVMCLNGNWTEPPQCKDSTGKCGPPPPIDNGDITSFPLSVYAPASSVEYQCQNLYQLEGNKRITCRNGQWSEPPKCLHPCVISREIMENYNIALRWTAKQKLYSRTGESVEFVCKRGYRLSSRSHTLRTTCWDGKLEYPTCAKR

Molecular target: native fHbp v2.16 on live N. meningitidis strain UK104 (M08-240104) (Neisseria meningitidis) (UniProt Q6VS19)
Assay: flow cytometry on cells; only the binder purified

Substance: human factor H (from UniProt P08603 19-1231)
- binding: binds
